No constants are given. Whether binding was seen depends on the method and setting. Binding seen in cells or lysates may run through a third protein. Some results given as binding are weak or reduced against the parent protein; the word gives no strength. Tags and fused reporters may be left off the sequences shown. One block for each molecule: values may come before it.
Experiments:
CMKLR1-eYFP = molecular target: T1, CMKLR1-eYFP (UniProt Q99788); experiment: FRET or BRET; arrestin3 recruitment: COS-7 cells co-transfected with GPR1-eYFP or CMKLR1-eYFP and Rluc8-Arr3, stimulated with agonist (ChemS157 or chemerin-9) in BRET buffer (25 mM HEPES, pH 7.4 in HBSS), coelenterazine H; kinetics over 20 min or read after 10 min
T1 sequence: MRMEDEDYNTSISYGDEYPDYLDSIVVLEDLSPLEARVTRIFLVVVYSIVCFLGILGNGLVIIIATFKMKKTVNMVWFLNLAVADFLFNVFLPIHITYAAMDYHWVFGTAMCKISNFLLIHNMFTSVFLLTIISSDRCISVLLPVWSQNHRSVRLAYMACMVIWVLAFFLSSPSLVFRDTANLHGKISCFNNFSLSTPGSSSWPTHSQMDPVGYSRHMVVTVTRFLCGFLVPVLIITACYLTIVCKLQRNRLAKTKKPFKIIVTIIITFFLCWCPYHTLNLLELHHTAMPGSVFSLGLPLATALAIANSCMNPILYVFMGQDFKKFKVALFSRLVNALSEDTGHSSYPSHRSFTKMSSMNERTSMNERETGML

The chains behind the UniProt entries cited, without tags or fusion partners.
UniProt P32120: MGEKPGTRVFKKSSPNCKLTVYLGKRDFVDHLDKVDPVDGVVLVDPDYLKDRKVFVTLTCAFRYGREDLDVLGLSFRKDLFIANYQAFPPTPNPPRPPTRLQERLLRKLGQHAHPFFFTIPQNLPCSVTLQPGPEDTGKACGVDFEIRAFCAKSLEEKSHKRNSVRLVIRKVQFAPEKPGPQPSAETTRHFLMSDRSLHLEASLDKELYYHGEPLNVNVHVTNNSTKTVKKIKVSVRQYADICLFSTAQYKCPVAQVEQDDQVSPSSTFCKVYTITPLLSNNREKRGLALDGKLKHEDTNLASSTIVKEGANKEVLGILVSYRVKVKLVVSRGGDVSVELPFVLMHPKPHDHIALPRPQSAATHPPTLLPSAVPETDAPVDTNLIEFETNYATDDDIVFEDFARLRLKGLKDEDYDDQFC

GPR1-eYFP (human) = molecular target: T2, GPR1-eYFP (human) (UniProt P46091); experiment: as above
T2 sequence: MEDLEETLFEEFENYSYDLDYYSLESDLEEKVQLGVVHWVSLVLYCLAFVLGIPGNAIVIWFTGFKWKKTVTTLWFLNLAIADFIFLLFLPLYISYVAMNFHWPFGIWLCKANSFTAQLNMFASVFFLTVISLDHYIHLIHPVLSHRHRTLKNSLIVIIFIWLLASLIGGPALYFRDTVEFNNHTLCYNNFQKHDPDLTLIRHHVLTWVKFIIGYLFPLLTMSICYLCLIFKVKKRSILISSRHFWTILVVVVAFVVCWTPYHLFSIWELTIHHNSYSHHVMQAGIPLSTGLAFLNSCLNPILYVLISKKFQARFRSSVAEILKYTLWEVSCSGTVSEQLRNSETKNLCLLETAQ

[1] = molecular target: T3, Nluc-GPR1-eYFP (wild type) (human) (UniProt P46091); experiment: FRET or BRET; NanoBRET ligand binding: COS-7 cells transiently expressing the Nluc-GPR1-eYFP construct, Tam-labeled peptide added in BRET buffer (25 mM HEPES, pH 7.4 in HBSS), furimazine; Tam emission 550-700 nm over NanoLuc luminescence 430-470 nm; 37 °C; only the binder purified
T3 sequence: T2 sequence

- binding (CMKLR1-eYFP): binds
- binding (GPR1-eYFP (human)): binds
Molecule: Rluc8-Arr3 (from UniProt P32120 1-420)

- binding [1]: binds
B1: Tam-EG(4)-scr2C9 (peptide)
peptide: QFYSFFPAG
modifications: Tam on the N-terminus through an ethylene glycol linker (EG(4))

— article PMC8429170, “Ligand-binding and -scavenging of the chemerin receptor GPR1” (Cellular and Molecular Life Sciences: CMLS, 2021)
